From the supplement of paper PMC10849652
This is one part of the list.

By UniProt entry, the sequences of proteins in these tests, tags left out. Where a name states a change or a piece, a line headed by the entry shows the natural chain unless it says otherwise.
UniProt P11388: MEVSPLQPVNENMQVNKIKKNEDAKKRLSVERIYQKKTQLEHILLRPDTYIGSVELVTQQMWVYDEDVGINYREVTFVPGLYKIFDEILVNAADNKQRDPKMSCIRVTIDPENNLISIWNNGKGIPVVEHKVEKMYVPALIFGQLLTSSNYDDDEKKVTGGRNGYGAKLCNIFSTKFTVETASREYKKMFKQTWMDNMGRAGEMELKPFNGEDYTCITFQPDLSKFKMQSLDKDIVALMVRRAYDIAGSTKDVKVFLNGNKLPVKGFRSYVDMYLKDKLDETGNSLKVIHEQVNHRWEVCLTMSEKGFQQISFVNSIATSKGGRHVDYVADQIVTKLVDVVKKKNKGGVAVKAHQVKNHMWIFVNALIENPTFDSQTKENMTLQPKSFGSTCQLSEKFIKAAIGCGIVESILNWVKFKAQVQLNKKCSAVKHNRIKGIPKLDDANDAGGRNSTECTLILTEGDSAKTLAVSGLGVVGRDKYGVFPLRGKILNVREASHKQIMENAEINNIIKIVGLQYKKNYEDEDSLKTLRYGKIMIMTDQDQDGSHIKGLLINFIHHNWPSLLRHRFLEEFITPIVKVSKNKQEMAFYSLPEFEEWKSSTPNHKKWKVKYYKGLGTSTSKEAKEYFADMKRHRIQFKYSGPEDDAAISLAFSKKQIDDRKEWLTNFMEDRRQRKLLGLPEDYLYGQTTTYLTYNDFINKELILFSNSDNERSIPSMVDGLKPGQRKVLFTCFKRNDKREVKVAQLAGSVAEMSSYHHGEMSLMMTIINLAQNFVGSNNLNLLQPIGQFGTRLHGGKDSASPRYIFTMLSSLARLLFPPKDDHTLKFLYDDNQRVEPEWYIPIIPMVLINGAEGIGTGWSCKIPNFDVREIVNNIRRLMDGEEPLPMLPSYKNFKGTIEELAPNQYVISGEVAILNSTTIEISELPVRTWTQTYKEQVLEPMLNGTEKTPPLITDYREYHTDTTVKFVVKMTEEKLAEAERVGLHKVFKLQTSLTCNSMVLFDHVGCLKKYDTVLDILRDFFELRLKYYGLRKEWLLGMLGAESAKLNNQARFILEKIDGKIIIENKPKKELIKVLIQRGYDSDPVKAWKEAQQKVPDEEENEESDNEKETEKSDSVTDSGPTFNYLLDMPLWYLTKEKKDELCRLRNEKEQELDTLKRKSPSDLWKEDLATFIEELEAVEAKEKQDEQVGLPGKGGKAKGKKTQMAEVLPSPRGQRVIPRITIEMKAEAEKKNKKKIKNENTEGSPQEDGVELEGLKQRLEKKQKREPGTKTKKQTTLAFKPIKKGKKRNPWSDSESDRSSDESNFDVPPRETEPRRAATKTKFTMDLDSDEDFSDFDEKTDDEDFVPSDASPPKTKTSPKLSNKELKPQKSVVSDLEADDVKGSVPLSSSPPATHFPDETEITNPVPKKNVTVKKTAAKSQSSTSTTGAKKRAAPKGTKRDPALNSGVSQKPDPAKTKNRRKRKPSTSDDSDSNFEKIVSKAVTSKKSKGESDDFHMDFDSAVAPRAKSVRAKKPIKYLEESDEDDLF
UniProt Q13263: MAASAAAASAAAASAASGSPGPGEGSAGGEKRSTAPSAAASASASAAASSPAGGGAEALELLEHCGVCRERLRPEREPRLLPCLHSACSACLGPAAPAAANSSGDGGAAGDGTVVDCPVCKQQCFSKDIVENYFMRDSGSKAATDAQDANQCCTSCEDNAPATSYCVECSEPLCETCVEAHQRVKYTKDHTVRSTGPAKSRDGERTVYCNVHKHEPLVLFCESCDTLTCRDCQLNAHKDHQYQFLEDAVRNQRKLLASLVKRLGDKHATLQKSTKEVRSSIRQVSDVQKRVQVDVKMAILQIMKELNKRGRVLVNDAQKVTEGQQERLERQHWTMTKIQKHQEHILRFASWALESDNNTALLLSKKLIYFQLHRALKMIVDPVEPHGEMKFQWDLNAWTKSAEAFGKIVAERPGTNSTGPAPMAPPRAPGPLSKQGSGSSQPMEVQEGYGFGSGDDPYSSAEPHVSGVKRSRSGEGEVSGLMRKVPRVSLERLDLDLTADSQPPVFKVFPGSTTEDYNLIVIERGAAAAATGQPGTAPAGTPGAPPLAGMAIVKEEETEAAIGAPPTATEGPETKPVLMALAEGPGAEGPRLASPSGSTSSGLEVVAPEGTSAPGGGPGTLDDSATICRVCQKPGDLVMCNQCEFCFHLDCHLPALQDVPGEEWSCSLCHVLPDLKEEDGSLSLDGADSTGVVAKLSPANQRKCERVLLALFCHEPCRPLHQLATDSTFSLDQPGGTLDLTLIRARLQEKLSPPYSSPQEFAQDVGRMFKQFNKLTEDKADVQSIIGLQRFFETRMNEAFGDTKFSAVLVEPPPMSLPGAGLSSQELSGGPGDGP
UniProt Q8TD43: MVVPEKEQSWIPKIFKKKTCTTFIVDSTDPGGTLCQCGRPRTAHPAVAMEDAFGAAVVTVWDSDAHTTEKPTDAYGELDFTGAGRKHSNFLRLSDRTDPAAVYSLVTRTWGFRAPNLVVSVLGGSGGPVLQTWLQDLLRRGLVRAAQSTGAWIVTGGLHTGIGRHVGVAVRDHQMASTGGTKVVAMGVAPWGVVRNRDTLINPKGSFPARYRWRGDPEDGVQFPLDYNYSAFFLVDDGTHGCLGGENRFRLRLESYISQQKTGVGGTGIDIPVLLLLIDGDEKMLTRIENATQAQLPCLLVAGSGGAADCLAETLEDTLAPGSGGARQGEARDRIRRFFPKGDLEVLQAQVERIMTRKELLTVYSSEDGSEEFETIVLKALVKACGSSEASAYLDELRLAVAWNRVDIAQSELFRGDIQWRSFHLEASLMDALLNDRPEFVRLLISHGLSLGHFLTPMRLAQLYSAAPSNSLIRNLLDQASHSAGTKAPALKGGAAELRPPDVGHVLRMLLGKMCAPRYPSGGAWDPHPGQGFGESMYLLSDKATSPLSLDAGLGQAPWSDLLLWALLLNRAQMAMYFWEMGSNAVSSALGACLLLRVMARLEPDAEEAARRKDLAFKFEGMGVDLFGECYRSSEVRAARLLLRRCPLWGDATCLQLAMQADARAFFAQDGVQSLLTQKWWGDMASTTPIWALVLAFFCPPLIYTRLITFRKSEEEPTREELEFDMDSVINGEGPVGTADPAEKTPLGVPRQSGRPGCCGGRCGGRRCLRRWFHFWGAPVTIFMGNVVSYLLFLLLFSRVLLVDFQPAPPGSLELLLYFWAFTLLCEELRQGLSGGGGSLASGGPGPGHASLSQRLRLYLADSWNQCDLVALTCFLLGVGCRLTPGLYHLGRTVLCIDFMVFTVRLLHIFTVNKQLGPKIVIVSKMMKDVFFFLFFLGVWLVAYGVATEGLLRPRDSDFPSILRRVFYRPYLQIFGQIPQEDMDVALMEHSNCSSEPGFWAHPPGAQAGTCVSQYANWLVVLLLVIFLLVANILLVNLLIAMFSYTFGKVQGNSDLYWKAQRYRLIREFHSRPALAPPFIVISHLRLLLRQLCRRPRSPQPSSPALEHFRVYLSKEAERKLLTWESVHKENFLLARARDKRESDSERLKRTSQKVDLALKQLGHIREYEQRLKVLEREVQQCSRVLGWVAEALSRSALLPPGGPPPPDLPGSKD
UniProt O14787: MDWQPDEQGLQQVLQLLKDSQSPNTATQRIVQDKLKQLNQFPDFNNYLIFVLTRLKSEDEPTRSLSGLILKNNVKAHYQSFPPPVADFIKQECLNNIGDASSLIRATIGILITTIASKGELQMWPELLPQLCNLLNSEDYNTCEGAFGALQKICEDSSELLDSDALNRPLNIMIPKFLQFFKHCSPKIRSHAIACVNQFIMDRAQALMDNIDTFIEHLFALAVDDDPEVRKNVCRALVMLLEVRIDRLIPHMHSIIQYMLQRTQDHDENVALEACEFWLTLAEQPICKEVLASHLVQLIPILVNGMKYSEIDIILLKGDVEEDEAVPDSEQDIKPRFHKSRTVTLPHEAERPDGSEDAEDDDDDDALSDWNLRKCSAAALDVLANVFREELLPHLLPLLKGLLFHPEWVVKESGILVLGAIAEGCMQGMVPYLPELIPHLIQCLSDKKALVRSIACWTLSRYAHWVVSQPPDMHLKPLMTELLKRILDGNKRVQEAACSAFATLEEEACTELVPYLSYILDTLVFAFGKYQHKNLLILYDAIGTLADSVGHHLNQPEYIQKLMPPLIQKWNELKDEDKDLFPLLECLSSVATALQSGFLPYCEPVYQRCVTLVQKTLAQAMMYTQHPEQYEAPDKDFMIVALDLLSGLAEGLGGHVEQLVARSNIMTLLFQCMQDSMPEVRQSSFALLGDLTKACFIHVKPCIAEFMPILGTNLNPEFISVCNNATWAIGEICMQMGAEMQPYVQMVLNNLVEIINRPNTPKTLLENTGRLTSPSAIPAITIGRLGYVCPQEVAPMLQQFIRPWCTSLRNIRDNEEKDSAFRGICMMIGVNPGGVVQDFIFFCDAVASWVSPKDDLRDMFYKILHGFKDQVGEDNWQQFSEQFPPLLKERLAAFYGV

What was measured:
Assay in all cases: log2 fold change, soluble protein after heating vs DMSO (PISA); higher = thermal stabilisation; K562 cells, 10 uM, 30 min; active = over 0.2 and 3.5 SD of the protein, either way, in both replicates (recomputed)
saracatinib = compound: CN1CCN(CCOc2cc(OC3CCOCC3)c3c(Nc4c(Cl)ccc5c4OCO5)ncnc3c2)CC1 [saracatinib]
Method in brief: (§1)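 Aliquots of K562 cells (2×10^6 cells/mL) treated with 10 μM compound for 30 min were heated for 3 min over 48°C-58°C. After pooling and extraction in PBS with 0.5% NP-40 at 4°C, soluble protein from a 21,000xg, 90 min spin was quantified by TMTpro 16plex LC-MS/MS with channel sums equalised. Thermal stability is expressed against control samples, from duplicates, as a log2 fold change.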

sotrastaurin = compound: CN1CCN(c2nc(C3=C(c4c[nH]c5ccccc45)C(=O)NC3=O)c3ccccc3n2)CC1 [sotrastaurin]
Method in brief: as §1

Tubastatin A = compound: CN1CCc2c(c3ccccc3n2Cc2ccc(C(=O)NO)cc2)C1 [Tubastatin A]
Method in brief: as §1

[1] = compound: CNC(=O)C1=CC=CC=C1NC2=NC(=NC=C2Cl)NC3=C(C=C(C=C3)N4CCOCC4)OC
Method in brief: as §1

defactinib = compound: CNC(=O)c1ccc(Nc2ncc(C(F)(F)F)c(NCc3nccnc3N(C)S(C)(=O)=O)n2)cc1 [defactinib]
Method in brief: as §1

rucaparib = compound: CNCc1ccc(-c2[nH]c3cc(F)cc4c3c2CCNC4=O)cc1 [rucaparib]
Method in brief: as §1

[2] = compound: CNc1nc(-c2ccc3c(N)n[nH]c3c2)cc(N2C[C@@H](C(=O)NC3CCCCC3)CC[C@H]2C)n1
Method in brief: as §1

encorafenib = compound: COC(=O)N[C@@H](C)CNc1nccc(-c2cn(C(C)C)nc2-c2cc(Cl)cc(NS(C)(=O)=O)c2F)n1 [encorafenib]
Method in brief: as §1

[3] = compound: COC(=O)[C@H](CCSC)NC(=O)C1=C(C=C(C=C1)NC[C@H](CS)N)C2=CC=CC=C2
Method in brief: as §1

[4] = compound: COC1=CC=C(C=C1)CN2C=CC3=C2C=C(C=C3)C(=O)NO
Method in brief: as §1

filanesib = compound: CON(C)C(=O)N1N=C(c2cc(F)ccc2F)S[C@@]1(CCCN)c1ccccc1 [filanesib]
Method in brief: as §1

zotarolimus = compound: CO[C@H]1C[C@@H]2CC[C@@H](C)[C@@](O)(O2)C(=O)C(=O)N2CCCC[C@H]2C(=O)O[C@H]([C@H](C)C[C@@H]2CC[C@H](n3cnnn3)[C@H](OC)C2)CC(=O)[C@H](C)/C=C(\C)[C@@H](O)[C@@H](OC)C(=O)[C@H](C)C[C@H](C)/C=C/C=C/C=C/1C [zotarolimus]
Method in brief: as §1

idasanutlin = compound: COc1cc(C(=O)O)ccc1NC(=O)[C@@H]1N[C@@H](CC(C)(C)C)[C@](C#N)(c2ccc(Cl)cc2F)[C@H]1c1cccc(Cl)c1F [idasanutlin]
Method in brief: as §1

alisertib = compound: COc1cc(Nc2ncc3c(n2)-c2ccc(Cl)cc2C(c2c(F)cccc2OC)=NC3)ccc1C(=O)O [alisertib]
Method in brief: as §1

[5] = compound: COc1cc2nc(-c3cc(F)ccc3O)nc(N[C@@H]3CNC[C@H]3C(C)(C)O)c2cc1OC
Method in brief: as §1

gefitinib = compound: COc1cc2ncnc(Nc3ccc(F)c(Cl)c3)c2cc1OCCCN1CCOCC1 [gefitinib]
Method in brief: as §1

[6] = compound: COc1cccc2cc(-c3nc([C@H]4CC[C@H](C(=O)O)CC4)n4ncnc(N)c34)[nH]c12
Method in brief: as §1

lapatinib = compound: CS(=O)(=O)CCNCc1ccc(-c2ccc3ncnc(Nc4ccc(OCc5cccc(F)c5)c(Cl)c4)c3c2)o1 [lapatinib]
Method in brief: as §1

pictilisib = compound: CS(=O)(=O)N1CCN(Cc2cc3nc(-c4cccc5[nH]ncc45)nc(N4CCOCC4)c3s2)CC1 [pictilisib]
Method in brief: as §1

Measured: log2 fold change

TOP2A isoform 4 (UniProt P11388)
inactive: saracatinib -0.168 | sotrastaurin 0.006 | Tubastatin A 0.103 | [1] 0.102 | defactinib 0.438 | rucaparib 0.434 | [2] 0.273 | encorafenib 0.288 | [3] -0.086 | [4] 0.052 | filanesib 0.486 | zotarolimus 0.079 | idasanutlin 0.24 | alisertib -0.144 | [5] -0.029 | gefitinib -0.042 | [6] -0.4 | lapatinib 0.13 | pictilisib -0.071

TRIM28 (UniProt Q13263)
inactive: saracatinib 0.008 | sotrastaurin -0.064 | Tubastatin A 0.048 | [1] 0.054 | defactinib -0.121 | rucaparib -0.075 | [2] -0.019 | encorafenib 0.047 | [3] -0.032 | [4] 0.015 | filanesib -0.017 | zotarolimus 0.046 | idasanutlin -0.031 | alisertib -0.087 | [5] 0.003 | gefitinib 0.002 | [6] -0.03 | lapatinib -0.005 | pictilisib 0.033

TRPM4 (UniProt Q8TD43)
inactive: saracatinib -0.003 | sotrastaurin 0.217 | [2] 0.051 | filanesib 0.066

TNPO2 (UniProt O14787)
inactive: saracatinib 0.066 | sotrastaurin -0.055 | Tubastatin A 0.03 | [1] 0.013 | defactinib -0.188 | rucaparib -0.051 | [2] 0.054 | encorafenib 0.133 | [3] -0.079 | [4] -0.022 | filanesib -0.005 | zotarolimus 0.065 | idasanutlin -0.194 | alisertib -0.071 | [5] -0.069 | gefitinib 0.027 | [6] -0.038 | lapatinib -0.048 | pictilisib -0.076
